Results: US20250210128A1, “COMPUTER-IMPLEMENTED DESIGN OF PEPTIDE:RECEPTOR SIGNALING COMPLEXES FOR ENHANCED CHEMOTAXIS” (Ecole Polytechnique Federale de Lausanne (EPFL), priority 2022, published 2025)
Some results were stated once for a whole list of compounds, not compound by compound.

System: primary human T cells
Assay: Boyden chamber migration assay of T cells transduced with CXCR4 variants
Assay type: cell-based
Conditions: 100 nM wild-type CXCL12 full-length chemokine
Procedure: T cells transduced and selected for CXCR4 variant expression from 3-6 donors were stained with 1 uM Vybrant DiO cell-labeling solution (Thermo, ref. V22886) in serum-free RPMI 1640+GlutaMax. 40,000 cells in 75 uL were seeded in each well of 96-well Boyden chambers with 5.0 μm pores (Corning, ref. 3388)^42. Reservoirs were filled with 200 uL serum-free RPMI 1640+GlutaMax or supplemented with 100 nM chemokine. The bottom of the attractant reservoir was imaged for migrated cells over the course of 8 hours with a Cytation 5 BioSpa (Biotek) at 37° C. with 5% CO2. Fluorescent spots were counted over time and compared to the no-chemokine control to calculate the migration index (#migrated cells towards attractant/#migrated cells towards no-attractant). The peak migration index was averaged between 3 technical replicates for each transduced donor per attractant concentration were plotted.

Molecule | migration (fold-migration over no-chemoattractant control)
Cdes2: second-generation combinatorial design CXCR4 variant combining the 2 designed binding hotspot motifs (protein, Cdes2) MEGISIYTSDNYTEEMGSGDYDSMKEPCFREENANFAKIFLPTIFSIIFLTGIVGNGLVILVMGYQKKLRSMTDKYRLHLSVADLLFVITLPFWAVDAVANWYFGNFLCKAVHVIYTVNLYSSVLILAFISLDRYLAIVHATNSQRPRKLLAEKVVYVGVWIPALLLTIPDFIFANVFEAQDRYVCDRFYPNDLWVVVFQFQHIMVGLILPGIVILSCYCIIISKLSHSKGHQKRKALKTTVILILAFFACWLPYYIGISIDSFILLEIIKQGCEFENTVHKWIMITEALAFFHCCLNPILYAFLGAKFKTSAQHALTSVSRGSSLKILSKGKRGGHSSVSTESESSSFHSS | ≤ 5 fold
Ldes: CXCR4 variant assembled from activating point mutations on TM1, TM3 and ECL2 of the point mutant library (protein, Ldes) MEGISIYTSDNYTEEMGSGDYDSMKEPCFREENANFNKIFIPTIYSIIFLTGIVGNGLVILVMGYQKKLRSMTDKYRLHLSVADLLFVITLPFWAVDAVANWYFGNFLCKAVNVIYTVNLYSSVLILAFISLDRYLAIVHATNSQRPRKLLAEKVVYVGVWIPALLLTIPDFIFANVAEADDRYICDRFYPNDLWVVVFQFQHIMVGLILPGIVILSCYCIIISKLSHSKGHQKRKALKTTVILILAFFACWLPYYIGISIDSFILLEIIKQGCEFENTVHKWISITEALAFFHCCLNPILYAFLGAKFKTSAQHALTSVSRGSSLKILSKGKRGGHSSVSTESESSSFHSS | ≤ 5 fold
CLdes: CXCR4 variant combining the H113N mutation with the Cdes2 design (protein, CLdes, CXCR4 variant combining the H113N mutation with the Cdes2 design) MEGISIYTSDNYTEEMGSGDYDSMKEPCFREENANFAKIFLPTIFSIIFLTGIVGNGLVILVMGYQKKLRSMTDKYRLHLSVADLLFVITLPFWAVDAVANWYFGNFLCKAVNVIYTVNLYSSVLILAFISLDRYLAIVHATNSQRPRKLLAEKVVYVGVWIPALLLTIPDFIFANVFEAQDRYVCDRFYPNDLWVVVFQFQHIMVGLILPGIVILSCYCIIISKLSHSKGHQKRKALKTTVILILAFFACWLPYYIGISIDSFILLEIIKQGCEFENTVHKWIMITEALAFFHCCLNPILYAFLGAKFKTSAQHALTSVSRGSSLKILSKGKRGGHSSVSTESESSSFHSS | ≤ 5 fold
